# Measurements from the supplement of paper PMC10849652.
# Amino acid sequences for entries named in this document (tags omitted). A change or cut given only in a name is not applied to a line headed by its entry.
# UniProt Q9NV66: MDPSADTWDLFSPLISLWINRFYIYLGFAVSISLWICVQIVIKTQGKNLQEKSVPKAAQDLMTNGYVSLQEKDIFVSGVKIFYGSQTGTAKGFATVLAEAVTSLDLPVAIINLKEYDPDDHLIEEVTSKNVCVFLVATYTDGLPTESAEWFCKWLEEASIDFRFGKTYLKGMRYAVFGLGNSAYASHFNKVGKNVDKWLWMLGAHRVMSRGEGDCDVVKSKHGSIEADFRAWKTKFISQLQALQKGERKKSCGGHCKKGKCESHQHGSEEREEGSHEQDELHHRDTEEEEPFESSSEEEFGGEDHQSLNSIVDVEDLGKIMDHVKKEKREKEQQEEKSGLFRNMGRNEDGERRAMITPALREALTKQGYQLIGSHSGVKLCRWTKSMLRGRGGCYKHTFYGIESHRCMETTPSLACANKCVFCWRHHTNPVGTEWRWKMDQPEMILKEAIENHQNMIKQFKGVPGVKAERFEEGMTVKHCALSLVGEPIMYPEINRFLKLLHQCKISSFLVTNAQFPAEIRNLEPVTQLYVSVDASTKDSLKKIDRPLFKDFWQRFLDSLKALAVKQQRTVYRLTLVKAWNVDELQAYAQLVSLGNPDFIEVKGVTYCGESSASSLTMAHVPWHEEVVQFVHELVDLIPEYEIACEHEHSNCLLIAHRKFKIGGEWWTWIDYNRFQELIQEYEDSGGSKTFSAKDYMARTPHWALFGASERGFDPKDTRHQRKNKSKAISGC
# UniProt P63146, whole entry, looked up: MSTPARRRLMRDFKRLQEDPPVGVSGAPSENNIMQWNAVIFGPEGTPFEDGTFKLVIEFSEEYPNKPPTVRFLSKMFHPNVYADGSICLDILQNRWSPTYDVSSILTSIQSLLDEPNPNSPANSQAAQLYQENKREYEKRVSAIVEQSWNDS
# UniProt Q9BZX2: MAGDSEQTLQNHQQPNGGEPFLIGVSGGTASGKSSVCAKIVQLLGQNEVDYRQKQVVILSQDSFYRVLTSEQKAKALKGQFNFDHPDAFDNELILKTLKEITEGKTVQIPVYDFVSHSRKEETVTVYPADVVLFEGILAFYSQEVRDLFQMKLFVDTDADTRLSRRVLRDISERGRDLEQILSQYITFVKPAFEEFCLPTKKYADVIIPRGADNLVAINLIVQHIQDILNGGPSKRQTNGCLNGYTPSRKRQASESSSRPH
# UniProt Q16763: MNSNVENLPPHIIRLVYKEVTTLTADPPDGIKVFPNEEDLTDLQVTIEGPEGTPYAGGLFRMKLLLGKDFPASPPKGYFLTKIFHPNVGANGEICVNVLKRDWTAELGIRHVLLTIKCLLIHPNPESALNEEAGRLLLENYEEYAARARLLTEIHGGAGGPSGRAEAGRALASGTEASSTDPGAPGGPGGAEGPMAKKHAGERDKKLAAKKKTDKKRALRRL
# UniProt Q9Y5Z9: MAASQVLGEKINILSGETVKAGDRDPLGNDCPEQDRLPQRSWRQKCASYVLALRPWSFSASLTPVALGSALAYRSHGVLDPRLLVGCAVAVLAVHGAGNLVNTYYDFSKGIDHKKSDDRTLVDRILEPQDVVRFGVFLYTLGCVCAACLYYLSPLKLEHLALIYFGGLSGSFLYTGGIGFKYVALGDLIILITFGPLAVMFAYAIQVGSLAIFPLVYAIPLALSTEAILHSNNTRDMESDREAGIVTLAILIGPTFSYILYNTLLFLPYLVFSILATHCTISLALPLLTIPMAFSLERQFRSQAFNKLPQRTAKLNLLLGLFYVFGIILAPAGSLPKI
# UniProt Q9Y5K5, whole entry, looked up: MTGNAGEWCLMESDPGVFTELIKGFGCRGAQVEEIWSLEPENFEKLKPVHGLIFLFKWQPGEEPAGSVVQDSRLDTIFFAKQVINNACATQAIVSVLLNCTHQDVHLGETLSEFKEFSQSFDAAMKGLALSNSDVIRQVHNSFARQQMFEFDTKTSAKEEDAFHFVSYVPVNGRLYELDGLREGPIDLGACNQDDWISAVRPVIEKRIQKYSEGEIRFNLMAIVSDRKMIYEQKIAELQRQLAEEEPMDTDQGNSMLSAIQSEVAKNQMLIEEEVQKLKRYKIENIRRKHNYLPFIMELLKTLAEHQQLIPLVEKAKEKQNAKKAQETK
# UniProt Q969T4: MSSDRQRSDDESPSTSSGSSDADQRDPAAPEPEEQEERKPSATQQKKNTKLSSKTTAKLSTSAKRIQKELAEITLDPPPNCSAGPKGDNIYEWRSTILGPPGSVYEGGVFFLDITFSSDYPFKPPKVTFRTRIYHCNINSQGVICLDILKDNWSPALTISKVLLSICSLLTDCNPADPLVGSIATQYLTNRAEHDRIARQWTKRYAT
# UniProt Q8WVY7: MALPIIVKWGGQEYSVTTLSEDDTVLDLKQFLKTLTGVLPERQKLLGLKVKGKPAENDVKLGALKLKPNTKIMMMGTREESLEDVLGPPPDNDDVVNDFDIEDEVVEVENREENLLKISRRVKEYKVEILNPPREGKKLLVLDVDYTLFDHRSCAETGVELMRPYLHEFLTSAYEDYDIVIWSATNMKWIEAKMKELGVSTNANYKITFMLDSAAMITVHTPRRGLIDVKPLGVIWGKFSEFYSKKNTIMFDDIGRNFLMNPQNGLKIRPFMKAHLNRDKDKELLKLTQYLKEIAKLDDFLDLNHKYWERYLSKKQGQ
# UniProt P61077: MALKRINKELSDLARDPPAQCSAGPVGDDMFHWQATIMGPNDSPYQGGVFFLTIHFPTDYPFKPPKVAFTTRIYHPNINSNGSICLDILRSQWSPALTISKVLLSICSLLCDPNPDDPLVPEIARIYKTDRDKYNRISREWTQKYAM
# UniProt Q8WVN8: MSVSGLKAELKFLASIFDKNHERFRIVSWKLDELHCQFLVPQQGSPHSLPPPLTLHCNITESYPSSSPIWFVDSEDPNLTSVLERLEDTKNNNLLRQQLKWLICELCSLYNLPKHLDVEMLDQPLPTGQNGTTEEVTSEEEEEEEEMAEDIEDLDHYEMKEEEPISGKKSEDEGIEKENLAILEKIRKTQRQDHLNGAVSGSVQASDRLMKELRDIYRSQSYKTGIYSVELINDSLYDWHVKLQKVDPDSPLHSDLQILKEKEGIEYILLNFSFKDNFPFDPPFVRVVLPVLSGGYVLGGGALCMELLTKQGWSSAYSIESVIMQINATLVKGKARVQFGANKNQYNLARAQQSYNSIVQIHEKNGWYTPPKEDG
# UniProt Q12792, whole entry, looked up: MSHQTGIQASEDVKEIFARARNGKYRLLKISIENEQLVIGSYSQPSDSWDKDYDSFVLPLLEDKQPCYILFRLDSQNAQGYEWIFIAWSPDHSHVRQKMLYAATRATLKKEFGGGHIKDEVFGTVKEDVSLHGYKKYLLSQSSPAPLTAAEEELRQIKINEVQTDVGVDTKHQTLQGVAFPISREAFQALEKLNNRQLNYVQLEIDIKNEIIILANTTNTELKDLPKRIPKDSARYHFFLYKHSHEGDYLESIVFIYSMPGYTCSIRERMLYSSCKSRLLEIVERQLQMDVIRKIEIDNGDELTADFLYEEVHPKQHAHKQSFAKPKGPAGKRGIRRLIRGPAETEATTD
# UniProt O14933: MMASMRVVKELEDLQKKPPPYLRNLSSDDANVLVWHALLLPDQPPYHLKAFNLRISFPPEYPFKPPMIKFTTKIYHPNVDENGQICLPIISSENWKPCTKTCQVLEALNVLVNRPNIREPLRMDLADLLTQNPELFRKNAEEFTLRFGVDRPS
# UniProt P40222: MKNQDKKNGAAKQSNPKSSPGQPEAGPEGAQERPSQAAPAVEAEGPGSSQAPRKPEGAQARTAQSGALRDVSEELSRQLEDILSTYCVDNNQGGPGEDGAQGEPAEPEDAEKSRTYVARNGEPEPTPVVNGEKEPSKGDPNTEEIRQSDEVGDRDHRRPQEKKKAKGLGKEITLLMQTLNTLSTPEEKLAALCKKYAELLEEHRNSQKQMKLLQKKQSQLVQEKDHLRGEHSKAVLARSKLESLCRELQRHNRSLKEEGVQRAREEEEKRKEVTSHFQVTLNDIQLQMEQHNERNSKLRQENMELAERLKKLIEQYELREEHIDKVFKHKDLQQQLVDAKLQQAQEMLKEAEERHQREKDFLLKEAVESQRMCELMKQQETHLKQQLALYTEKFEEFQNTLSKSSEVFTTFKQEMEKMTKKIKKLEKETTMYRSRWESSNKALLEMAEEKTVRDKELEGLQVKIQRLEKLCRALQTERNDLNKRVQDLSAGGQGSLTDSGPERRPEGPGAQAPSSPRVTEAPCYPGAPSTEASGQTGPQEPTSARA
# UniProt P62253: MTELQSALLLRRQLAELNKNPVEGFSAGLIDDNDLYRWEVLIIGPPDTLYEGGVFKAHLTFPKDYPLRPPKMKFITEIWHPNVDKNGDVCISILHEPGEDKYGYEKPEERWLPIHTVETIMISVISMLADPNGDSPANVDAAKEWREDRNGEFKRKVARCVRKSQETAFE
# UniProt Q13885, whole entry, looked up: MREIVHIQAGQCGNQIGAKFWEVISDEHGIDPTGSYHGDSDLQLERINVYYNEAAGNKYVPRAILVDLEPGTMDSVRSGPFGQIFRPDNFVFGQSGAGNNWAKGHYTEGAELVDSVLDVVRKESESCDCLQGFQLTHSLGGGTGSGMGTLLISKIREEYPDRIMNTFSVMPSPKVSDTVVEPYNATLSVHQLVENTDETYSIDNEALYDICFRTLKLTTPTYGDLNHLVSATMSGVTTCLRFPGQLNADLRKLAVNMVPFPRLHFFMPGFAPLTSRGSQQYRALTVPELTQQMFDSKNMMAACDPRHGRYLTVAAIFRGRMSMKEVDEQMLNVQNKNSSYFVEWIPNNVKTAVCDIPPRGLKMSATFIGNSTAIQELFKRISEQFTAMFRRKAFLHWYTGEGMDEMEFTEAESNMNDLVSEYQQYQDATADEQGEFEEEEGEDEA
# UniProt Q9Y385: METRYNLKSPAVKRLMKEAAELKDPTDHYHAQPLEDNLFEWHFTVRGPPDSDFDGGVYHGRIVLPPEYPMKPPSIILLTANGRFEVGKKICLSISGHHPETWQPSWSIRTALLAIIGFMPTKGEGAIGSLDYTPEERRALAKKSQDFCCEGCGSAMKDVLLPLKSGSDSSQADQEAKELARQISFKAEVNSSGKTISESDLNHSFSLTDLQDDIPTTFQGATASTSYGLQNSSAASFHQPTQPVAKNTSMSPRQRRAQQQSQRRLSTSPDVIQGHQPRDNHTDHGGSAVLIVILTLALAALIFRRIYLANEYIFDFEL
# UniProt P49459, whole entry, looked up: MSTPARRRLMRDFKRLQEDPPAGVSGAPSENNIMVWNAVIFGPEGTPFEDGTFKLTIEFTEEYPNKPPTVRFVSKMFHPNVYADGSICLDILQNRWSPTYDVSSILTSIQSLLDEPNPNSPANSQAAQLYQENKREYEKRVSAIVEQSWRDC
# UniProt P23258, whole entry, looked up: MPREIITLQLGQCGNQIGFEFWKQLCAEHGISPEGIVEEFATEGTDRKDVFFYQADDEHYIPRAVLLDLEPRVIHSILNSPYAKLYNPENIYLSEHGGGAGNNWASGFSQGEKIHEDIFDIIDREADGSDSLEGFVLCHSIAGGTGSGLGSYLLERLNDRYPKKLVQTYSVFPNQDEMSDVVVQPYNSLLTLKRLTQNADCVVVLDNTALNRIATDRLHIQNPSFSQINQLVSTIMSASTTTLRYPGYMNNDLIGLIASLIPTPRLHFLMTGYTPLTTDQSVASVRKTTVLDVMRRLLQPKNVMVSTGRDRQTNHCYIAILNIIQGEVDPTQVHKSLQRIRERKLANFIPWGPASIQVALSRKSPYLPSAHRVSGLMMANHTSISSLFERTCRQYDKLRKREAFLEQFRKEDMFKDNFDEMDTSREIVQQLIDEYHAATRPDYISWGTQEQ
# UniProt Q6IPR3: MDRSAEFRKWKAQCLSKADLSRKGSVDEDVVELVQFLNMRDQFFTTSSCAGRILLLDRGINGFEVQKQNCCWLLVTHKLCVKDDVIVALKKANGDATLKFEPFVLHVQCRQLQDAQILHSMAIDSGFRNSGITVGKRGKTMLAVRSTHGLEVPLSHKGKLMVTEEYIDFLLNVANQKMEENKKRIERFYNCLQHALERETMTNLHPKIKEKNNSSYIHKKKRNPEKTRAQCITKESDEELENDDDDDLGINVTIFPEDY
# UniProt Q8TBC4: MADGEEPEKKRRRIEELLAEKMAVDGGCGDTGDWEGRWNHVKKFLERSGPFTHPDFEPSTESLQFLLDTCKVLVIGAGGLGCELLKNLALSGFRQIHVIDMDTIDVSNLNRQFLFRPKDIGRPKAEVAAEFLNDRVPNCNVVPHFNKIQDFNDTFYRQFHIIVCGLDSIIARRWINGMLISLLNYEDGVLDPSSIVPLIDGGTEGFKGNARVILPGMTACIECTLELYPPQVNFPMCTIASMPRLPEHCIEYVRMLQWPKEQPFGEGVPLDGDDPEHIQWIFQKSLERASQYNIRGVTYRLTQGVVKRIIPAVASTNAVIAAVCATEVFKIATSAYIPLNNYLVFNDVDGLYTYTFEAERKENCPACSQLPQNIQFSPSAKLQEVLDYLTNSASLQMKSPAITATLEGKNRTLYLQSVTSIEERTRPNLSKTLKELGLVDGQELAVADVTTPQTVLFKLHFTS
# UniProt Q9BRA2: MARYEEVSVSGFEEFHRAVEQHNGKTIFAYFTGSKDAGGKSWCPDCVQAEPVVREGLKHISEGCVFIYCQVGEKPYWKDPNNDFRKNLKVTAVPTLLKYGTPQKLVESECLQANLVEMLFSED
# The other results are listed elsewhere or left out.
# Tests used:
# Assay in all cases: log2 fold change, soluble protein after heating vs DMSO (PISA); higher = thermal stabilisation; K562 lysate, 10 uM; active = over 0.2 and 3.5 SD of the protein, either way, in both replicates (recomputed)
# alvocidib = compound: CN1CC[C@H](c2c(O)cc(O)c3c(=O)cc(-c4ccccc4Cl)oc23)[C@H](O)C1 [alvocidib]
# Outline: (§1)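 Dounce homogenisation of K562 pellets in PBS pH 7.4 with 1 mM MgCl2 produced a crude extract, used at 1 mg/mL protein. Exposure to 10 μM compound lasted 30 min, and aliquots were then heated for 3 min across 48°C-58°C, pooled and brought to 0.5% NP-40 at 4°C. The supernatant after 21,000xg for 90 min was quantified by TMTpro 16plex LC-MS/MS with channel sums equalised. Duplicate values are given as log-two fold change in thermal stability relative to solvent controls.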
# Tubastatin A = compound: CN1CCc2c(c3ccccc3n2Cc2ccc(C(=O)NO)cc2)C1 [Tubastatin A]
# Outline: as §1
# [1] = compound: CNC(=O)C1=CC=CC=C1NC2=NC(=NC=C2Cl)NC3=C(C=C(C=C3)N4CCOCC4)OC
# Outline: as §1
# defactinib = compound: CNC(=O)c1ccc(Nc2ncc(C(F)(F)F)c(NCc3nccnc3N(C)S(C)(=O)=O)n2)cc1 [defactinib]
# Outline: as §1
# [2] = compound: CNc1nc(-c2ccc3c(N)n[nH]c3c2)cc(N2C[C@@H](C(=O)NC3CCCCC3)CC[C@H]2C)n1
# Outline: as §1
# encorafenib = compound: COC(=O)N[C@@H](C)CNc1nccc(-c2cn(C(C)C)nc2-c2cc(Cl)cc(NS(C)(=O)=O)c2F)n1 [encorafenib]
# Outline: as §1
# [3] = compound: COC(=O)[C@H](CCSC)NC(=O)C1=C(C=C(C=C1)NC[C@H](CS)N)C2=CC=CC=C2
# Outline: as §1
# alisertib = compound: COc1cc(Nc2ncc3c(n2)-c2ccc(Cl)cc2C(c2c(F)cccc2OC)=NC3)ccc1C(=O)O [alisertib]
# Outline: as §1
# [4] = compound: COc1cc2nc(-c3cc(F)ccc3O)nc(N[C@@H]3CNC[C@H]3C(C)(C)O)c2cc1OC
# Outline: as §1
# gefitinib = compound: COc1cc2ncnc(Nc3ccc(F)c(Cl)c3)c2cc1OCCCN1CCOCC1 [gefitinib]
# Outline: as §1
Target,log2 fold change (alvocidib),log2 fold change (Tubastatin A),log2 fold change [1],log2 fold change (defactinib),log2 fold change [2],log2 fold change (encorafenib),log2 fold change [3],log2 fold change (alisertib),log2 fold change [4],log2 fold change (gefitinib)
TYW1 (UniProt Q9NV66),inactive: -0.011,inactive: -0.192,inactive: -0.001,inactive: 0.016,inactive: -0.008,inactive: -0.025,inactive: 0.048,inactive: 0.118,inactive: -0.06,inactive: 0.072
UBE2B (UniProt P63146),inactive: 0.002,inactive: 0.034,inactive: 0.011,inactive: 0.03,inactive: 0.032,inactive: 0.036,inactive: 0.005,inactive: -0.03,inactive: -0.008,inactive: -0.029
UCK2 (UniProt Q9BZX2),inactive: -0.023,inactive: -0.071,inactive: 0.031,inactive: 0.096,inactive: -0.052,inactive: 0.023,inactive: 0.02,inactive: 0.075,inactive: -0.016,inactive: 0.026
UBR2 isoform 4 (UniProt Q8IWV8),inactive: 0.008,inactive: -0.12,inactive: 0.001,inactive: 0.024,inactive: -0.02,inactive: 0.026,inactive: 0.142,inactive: -0.012,inactive: 0.04,inactive: 0.019
UBE2S (UniProt Q16763),inactive: -0.003,inactive: -0.005,inactive: 0.018,inactive: -0.037,inactive: 0.055,inactive: -0.005,inactive: -0.069,inactive: -0.006,inactive: -0.018,inactive: 0.01
UBIAD1 (UniProt Q9Y5Z9),inactive: -0.016,inactive: 0.025,inactive: 0.008,inactive: 0.031,inactive: 0.157,inactive: 0.067,inactive: -0.102,inactive: 0.112,inactive: -0.061,inactive: -0.048
UCHL5 isoform 3 (UniProt Q9Y5K5),inactive: -0.009,inactive: -0.063,inactive: 0.008,inactive: -0.024,inactive: -0.011,inactive: -0.004,inactive: 0.088,inactive: -0.026,inactive: -0.012,inactive: -0.014
UBE2E3 (UniProt Q969T4),inactive: -0.05,inactive: 0.016,inactive: -0.009,inactive: 0.02,inactive: 0.009,inactive: 0.002,inactive: 0.019,inactive: 0.039,inactive: 0.023,inactive: -0.049
UBXN2B (UniProt Q14CS0),inactive: -0.123,inactive: -0.001,inactive: -0.046,inactive: 0.07,inactive: -0.018,inactive: -0.037,inactive: 0.069,inactive: 0.174,inactive: -0.114,inactive: 0.008
TTN isoform 12 (UniProt Q8WZ42),inactive: -0.119,inactive: 0.051,inactive: -0.009,inactive: -0.019,inactive: 0.175,inactive: -0.019,inactive: 0.038,inactive: -0.059,inactive: 0.13,inactive: -0.011
TUFM (UniProt P49411),inactive: 0.051,inactive: -0.08,inactive: 0.007,inactive: -0.008,inactive: -0.039,inactive: -0.033,inactive: 0.139,inactive: 0.02,inactive: -0.02,inactive: -0.03
UBLCP1 (UniProt Q8WVY7),inactive: 0.058,inactive: -0.039,inactive: 0.016,inactive: 0.035,inactive: -0.07,inactive: 0.026,inactive: -0.113,inactive: -0.045,inactive: -0.017,inactive: 0.002
TUBB6 (UniProt Q9BUF5),inactive: 0.023,inactive: -0.064,inactive: 0.015,inactive: 0.034,inactive: 0.023,inactive: 0.017,inactive: 0.056,inactive: 0.028,inactive: 0.011,inactive: -0.024
UBE2K (UniProt P61086),inactive: -0.03,inactive: 0.041,inactive: 0.013,inactive: -0.008,inactive: 0.037,inactive: -0.024,inactive: -0.029,inactive: -0.012,inactive: 0.004,inactive: -0.048
UBE2D3 isoform 3 (UniProt P61077),inactive: -0.016,inactive: 0.056,inactive: -0.032,inactive: 0.004,inactive: 0.025,inactive: 0.017,inactive: -0.067,inactive: 0.016,inactive: 0.007,inactive: -0.069
UBE2Q2 (UniProt Q8WVN8),inactive: 0.04,inactive: 0.175,inactive: -0.02,inactive: 0.087,inactive: -0.306,inactive: 0.032,inactive: 0.129,inactive: 0.001,inactive: 0.011,inactive: 0.106
TWF1 (UniProt Q12792),inactive: 0.059,inactive: 0.057,inactive: 0.014,inactive: -0.054,inactive: -0.022,inactive: -0.036,inactive: -0.022,inactive: -0.014,inactive: 0.006,inactive: -0.015
UBE2L6 (UniProt O14933),inactive: 0.034,inactive: -0.051,inactive: 0.082,inactive: 0.065,inactive: -0.005,inactive: 0.06,active: -0.36,inactive: 0.004,inactive: -0.026,inactive: 0.092
UBE3C (UniProt Q15386),inactive: 0,inactive: -0.084,inactive: 0.023,inactive: 0.033,inactive: 0.024,inactive: 0.076,inactive: -0.145,inactive: 0.022,inactive: 0,inactive: -0.026
TXLNA (UniProt P40222),inactive: -0.01,inactive: 0.042,inactive: 0.023,inactive: 0.019,inactive: 0.009,inactive: -0.003,inactive: -0.04,inactive: -0.006,inactive: -0.009,inactive: -0.019
UBE2G1 (UniProt P62253),inactive: 0.036,inactive: 0.008,inactive: -0.028,inactive: -0.04,inactive: 0.005,inactive: -0.015,inactive: -0.03,inactive: -0.025,inactive: -0.004,inactive: -0.047
TUBB2A (UniProt Q13885),inactive: -0.007,inactive: -0.062,inactive: -0.021,inactive: 0.006,inactive: -0.008,inactive: 0.01,inactive: 0.071,inactive: -0.005,inactive: -0.001,inactive: -0.006
UAP1 (UniProt Q16222),inactive: 0.011,inactive: -0.016,inactive: 0.03,inactive: -0.002,inactive: -0.005,inactive: -0.023,inactive: 0.079,inactive: 0.005,inactive: -0.011,inactive: 0.02
UBE2J1 (UniProt Q9Y385),inactive: 0.034,inactive: 0.044,inactive: 0.035,inactive: -0.046,inactive: 0.022,inactive: -0.008,inactive: 0.143,inactive: -0.06,inactive: 0.05,inactive: 0.013
UBE2A (UniProt P49459),inactive: 0.065,inactive: 0.056,inactive: 0.016,inactive: 0.026,inactive: 0.027,inactive: -0.038,inactive: -0.015,inactive: -0.024,inactive: 0.007,inactive: -0.065
TUBG1 (UniProt P23258),inactive: 0.033,inactive: -0.065,inactive: 0.035,inactive: 0.042,inactive: -0.032,inactive: -0.019,inactive: 0.039,inactive: 0.017,inactive: 0.009,inactive: 0.019
TYW3 (UniProt Q6IPR3),inactive: -0.033,inactive: 0.014,inactive: -0.007,inactive: -0.021,inactive: 0.061,inactive: 0.027,inactive: -0.064,inactive: -0.03,inactive: 0.019,inactive: 0.01
UBA3 (UniProt Q8TBC4),inactive: -0.006,inactive: -0.017,inactive: 0.002,inactive: -0.008,inactive: -0.008,inactive: -0.021,inactive: 0.035,inactive: -0.026,inactive: 0,inactive: -0.035
TXNDC15 (UniProt Q96J42),inactive: -0.009,inactive: 0.043,inactive: -0.015,inactive: 0.095,inactive: 0.021,inactive: 0.075,inactive: -0.034,inactive: 0.012,inactive: -0.018,inactive: -0.019
TXNDC17 (UniProt Q9BRA2),inactive: -0.01,inactive: 0.046,inactive: -0.013,inactive: 0.014,inactive: 0.08,inactive: -0.024,inactive: -0.026,inactive: -0.012,inactive: 0.02,inactive: -0.011

# Full records, quoted from the list. Values in the order: log2 fold change (alvocidib)	log2 fold change (Tubastatin A)	log2 fold change [1]	log2 fold change (defactinib)	log2 fold change [2]	log2 fold change (encorafenib)	log2 fold change [3]	log2 fold change (alisertib)	log2 fold change [4]	log2 fold change (gefitinib)
# UCHL5 isoform 3 (UniProt Q9Y5K5) as listed: inactive: -0.009	inactive: -0.063	inactive: 0.008	inactive: -0.024	inactive: -0.011	inactive: -0.004	inactive: 0.088	inactive: -0.026	inactive: -0.012	inactive: -0.014
# TUBG1 (UniProt P23258) as listed: inactive: 0.033	inactive: -0.065	inactive: 0.035	inactive: 0.042	inactive: -0.032	inactive: -0.019	inactive: 0.039	inactive: 0.017	inactive: 0.009	inactive: 0.019
